Paper PMC5717197, “Mechanistic insight into TRIP13-catalyzed Mad2 structural transition and spindle checkpoint silencing” (Nature Communications, 2017)
Residue numbers refer to the chain shown, from its start. In names and notes the source's numbering stands. No constants are given. Whether binding was seen depends on the method and setting. Binding can be weak; no strength is given. Each block holds one binder with its values, some of them ahead of it.

How the values were obtained:
[1] = biological target: p31^comet–Mad2–Cdc20N (human); assay: pull-down; Mad2-binding assay: as the dissociation assay but with 1 mM ATPγS in place of ATP; MBP1 or Cdc20N beads loaded with His6-Mad2, then TRIP13 (500 nM) and ΔN35-p31comet (1 µM); Reaction Buffer, room temperature; SDS-PAGE and Coomassie; both purified
[2] = biological target: p31^comet–Mad2–MBP1 (human); assay: as above
[3] = biological target: p31^comet–Mad2–MBP1 (human); assay: pull-down; Mad2 dissociation assay: MBP1 or Cdc20N coupled to SulfoLink resin, loaded with His6-Mad2 (0.5 mg/ml), washed, then TRIP13 and ΔN35-p31comet with 1 mM ATP for 30-60 min; Reaction Buffer (25 mM Tris pH 7.5, 200 mM NaCl, 10 mM MgCl2, 1 mM DTT, 5% glycerol, 0.05% Tween), room temperature; bound proteins by SDS-PAGE and Coomassie; both purified

B1: TRIP13 wild type (enzyme, human, UniProt Q15645 1-432, looked up)
chain: MDEAVGDLKQALPCVAESPTVHVEVHQRGSSTAKKEDINLSVRKLLNRHNIVFGDYTWTEFDEPFLTRNVQSVSIIDTELKVKDSQPIDLSACTVALHIFQLNEDGPSSENLEEETENIIAANHWVLPAAEFHGLWDSLVYDVEVKSHLLDYVMTTLLFSDKNVNSNLITWNRVVLLHGPPGTGKTSLCKALAQKLTIRLSSRYRYGQLIEINSHSLFSKWFSESGKLVTKMFQKIQDLIDDKDALVFVLIDEVESLTAARNACRAGTEPSDAIRVVNAVLTQIDQIKRHSNVVILTTSNITEKIDVAFVDRADIKQYIGPPSAAAIFKIYLSCLEELMKCQIIYPRQQLLTLRELEMIGFIENNVSKLSLLLNDISRKSEGLSGRVLRKLPFLAHALYVQAPTVTIEGFLQALSLAVDKQFEERKKLAAYI
notes: TRIP13, human; its own AUC and gel filtration show no discrete oligomer; also called TRIP13 WT; source: E. coli BL21 (DE3), purified (Ni-NTA, TEV, Resource Q, Superdex 200); not shown: His6, N-terminal, cleaved
binding [1]: binds
binding [2]: binds

B3: TRIP13 E253A (enzyme, UniProt Q15645 1-432)
chain: B1 chain with E253A
binding [3]: binds

Now from value to binder:

binding [1]: no binding
binding [2]: no binding (tested: 500 nM)
B2: TRIP13 W221A (enzyme, UniProt Q15645 1-432)
chain: B1 chain with W221A

binding [2]: binds
B4: TRIP13 N278A (enzyme, UniProt Q15645 1-432)
chain: B1 chain with N278A

binding [1]: binds
binding [2]: binds
B5: TRIP13 G320A (enzyme, human, UniProt Q15645 1-432, looked up)
chain: B1 chain with G320A
notes: TRIP13, human; source: E. coli BL21 (DE3), purified (Ni-NTA, TEV, Resource Q, Superdex 200); not shown: His6, N-terminal, cleaved
